These are yes or no findings as the source states them, for the method shown. Binding seen in cells or lysates may run through a third protein. These calls come from enrichment with a bait or labelling near it, and not all partners need be listed. For some of these results: No binding means not detected with the bait.
B1: pUL84 (protein, UniProt P16727 1-586)
chain: MPRVDPNLRNRARRPRARRGGGGGVGSNSSRHSGKCRRQRRALSAPPLTFLATTTTTTMMGVASTDDDSLLLKTPDELDKYSGSPQTILTLTDKHDIRQPRVHRGTYHLIQLHLDLRPEELRDPFQILLSTPLQLGEANDESQTAPATLQEEETAASHEPEKKKEKQEKKEEDEDDRNDDRERGILCVVSNEDSDVRPAFSLFPARPGCHILRSVIDQQLTRMAIVRLSLNLFALRIITPLLKRLPLRRKAAHHTALHDCLALHLPELTFEPTLDINNVTENAASVADTAESTDADLTPTLTVRVRHALCWHRVEGGISGPRGLTSRISARLSETTAKTLGPSVFGRLELDPNESPPDLTLSSLTLYQDGILRFNVTCDRTEAPADPVAFRLRLRRETVRRPFFSDAPLPYFVPPRSGAADEGLEVRVPYELTLKNSHTLRIYRRFYGPYLGVFVPHNRQGLKMPVTVWLPRSWLELTVLVSDENGATFPRDALLGRLYFISSKHTLNRGCLSAMTHQVKSTLHSRSTSHSPSQQQLSVLGASIALEDLLPMRLASPETEPQDCKLTENTTEKTSPVTLAMVCGDL

Amino acid sequences for entries named in this document (tags omitted).
UniProt Q96CV9: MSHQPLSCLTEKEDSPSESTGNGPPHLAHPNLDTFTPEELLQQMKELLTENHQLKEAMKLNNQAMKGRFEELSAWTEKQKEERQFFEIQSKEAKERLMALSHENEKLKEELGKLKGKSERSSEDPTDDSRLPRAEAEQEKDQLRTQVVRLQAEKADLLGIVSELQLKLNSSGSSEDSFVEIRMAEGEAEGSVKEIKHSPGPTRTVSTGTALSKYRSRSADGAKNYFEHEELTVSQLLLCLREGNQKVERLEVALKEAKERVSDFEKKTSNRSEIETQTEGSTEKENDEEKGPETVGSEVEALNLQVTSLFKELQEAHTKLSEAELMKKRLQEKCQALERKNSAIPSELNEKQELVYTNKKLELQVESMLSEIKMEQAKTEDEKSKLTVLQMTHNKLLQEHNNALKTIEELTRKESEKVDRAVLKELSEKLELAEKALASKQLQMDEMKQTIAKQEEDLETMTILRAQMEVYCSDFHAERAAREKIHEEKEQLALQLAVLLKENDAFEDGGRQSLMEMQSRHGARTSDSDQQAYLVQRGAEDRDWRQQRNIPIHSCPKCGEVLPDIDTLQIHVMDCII
UniProt P16790: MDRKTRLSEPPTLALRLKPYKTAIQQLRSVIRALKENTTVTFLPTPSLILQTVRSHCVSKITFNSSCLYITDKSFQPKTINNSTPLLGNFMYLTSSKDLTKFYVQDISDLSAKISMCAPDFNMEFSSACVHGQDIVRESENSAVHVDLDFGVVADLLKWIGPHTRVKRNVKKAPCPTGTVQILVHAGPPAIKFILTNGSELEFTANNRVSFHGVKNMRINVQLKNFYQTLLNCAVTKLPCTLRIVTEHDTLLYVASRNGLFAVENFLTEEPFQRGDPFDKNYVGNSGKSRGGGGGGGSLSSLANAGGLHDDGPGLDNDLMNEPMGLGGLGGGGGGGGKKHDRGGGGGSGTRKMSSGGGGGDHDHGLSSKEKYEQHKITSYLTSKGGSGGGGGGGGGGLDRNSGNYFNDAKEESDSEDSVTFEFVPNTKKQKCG
UniProt P16791: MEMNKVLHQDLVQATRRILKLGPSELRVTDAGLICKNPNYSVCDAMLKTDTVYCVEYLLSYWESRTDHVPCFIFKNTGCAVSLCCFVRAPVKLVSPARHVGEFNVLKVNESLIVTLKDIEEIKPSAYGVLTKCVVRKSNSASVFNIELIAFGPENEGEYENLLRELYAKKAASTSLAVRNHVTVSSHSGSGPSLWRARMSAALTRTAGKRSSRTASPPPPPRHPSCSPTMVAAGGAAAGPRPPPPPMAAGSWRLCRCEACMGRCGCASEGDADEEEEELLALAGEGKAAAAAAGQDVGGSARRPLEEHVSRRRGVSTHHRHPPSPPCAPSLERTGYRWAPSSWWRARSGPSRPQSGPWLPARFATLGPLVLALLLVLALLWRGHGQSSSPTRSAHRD
UniProt P16794: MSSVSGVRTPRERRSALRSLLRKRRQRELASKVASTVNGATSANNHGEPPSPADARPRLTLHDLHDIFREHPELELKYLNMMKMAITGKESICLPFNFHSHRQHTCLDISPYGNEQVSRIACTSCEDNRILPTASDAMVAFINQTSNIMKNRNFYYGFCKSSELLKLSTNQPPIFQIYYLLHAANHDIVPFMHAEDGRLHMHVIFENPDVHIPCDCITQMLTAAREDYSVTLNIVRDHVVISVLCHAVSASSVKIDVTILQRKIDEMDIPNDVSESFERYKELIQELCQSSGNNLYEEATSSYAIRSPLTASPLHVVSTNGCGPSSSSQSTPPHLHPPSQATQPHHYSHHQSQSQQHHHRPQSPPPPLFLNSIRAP
UniProt P16788: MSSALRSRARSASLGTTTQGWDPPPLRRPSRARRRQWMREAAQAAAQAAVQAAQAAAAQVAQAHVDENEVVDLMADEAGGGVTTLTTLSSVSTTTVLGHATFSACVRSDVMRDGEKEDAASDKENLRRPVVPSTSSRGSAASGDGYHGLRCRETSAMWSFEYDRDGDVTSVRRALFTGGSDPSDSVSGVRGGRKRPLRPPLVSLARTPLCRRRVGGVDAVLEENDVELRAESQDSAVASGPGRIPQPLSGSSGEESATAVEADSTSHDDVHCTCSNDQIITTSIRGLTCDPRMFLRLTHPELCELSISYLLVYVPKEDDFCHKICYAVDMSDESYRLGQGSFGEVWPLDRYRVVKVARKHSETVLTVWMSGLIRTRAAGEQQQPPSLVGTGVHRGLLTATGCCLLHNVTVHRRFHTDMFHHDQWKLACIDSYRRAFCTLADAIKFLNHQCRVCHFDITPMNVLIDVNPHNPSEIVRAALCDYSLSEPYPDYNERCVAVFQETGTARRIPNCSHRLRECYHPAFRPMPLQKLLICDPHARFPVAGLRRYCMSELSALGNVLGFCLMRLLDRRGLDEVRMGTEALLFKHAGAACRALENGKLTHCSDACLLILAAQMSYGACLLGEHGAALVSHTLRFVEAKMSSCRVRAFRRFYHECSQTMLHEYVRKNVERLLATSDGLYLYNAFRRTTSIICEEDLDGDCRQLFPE

What was measured:
[1] = target: sequestome 1 (SQSTM1/p62) (human (endogenous in HFF)) (UniProt Q13501); assay: affinity purification with mass spectrometry
[2] = target: optineurin (human (endogenous in HFF)) (UniProt Q96CV9); assay: affinity purification with mass spectrometry

Molecule | binding [1] | binding [2]
pUL44 (from UniProt P16790 1-433) | binds | no binding
pUL50 (from UniProt P16791 1-397) | binds | no binding
pUL53 (from UniProt P16794 1-376) | binds | no binding
pUL97 (from UniProt P16788 1-707) | binds | no binding
B1 | binds | binds

Reference: publication PMC11436200
